{"source": "PubChem BioAssay AID1224828 (NIAID, 2016)", "test": "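Regulators linking TLR4 signalling to p65 nuclear translocation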 (primary screen)", "system": "mouse RAW264.7 G9 macrophage reporter cells (GFP-p65, Tnf promoter-mCherry)", "reagent": "siRNA pool against mouse genes, 100 nM", "duration": "2 days siRNA transfection, then 40 min LPS before fixation", "conditions": "LPS (Salmonella minnesota R595) at 10 ng/ml", "measurement": "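Microscopy ratio of nuclear to perinuclear-ring GFP-p65 signal, scaled to the plate median; gene score is the average of two replicate robust z-scores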", "scale": "p65 translocation robust z-score: higher = more nuclear NF-kappaB p65 after LPS than the plate median; nuclear/cytoplasmic p65 ratio: higher = more nuclear NF-kappaB p65", "rule for the call": "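Active if robust z is above 3.3 (negative regulators) or below -1.56, the Tlr4 control median (positive regulators); activity score 50 or more; control wells not called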", "meaning of the calls": "active = hit (p65 shift raised or lowered); inactive = no clear change", "note": "This is a random part of about 17,000 reagents. 762 of all reagents (4.5%) were called active. 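Active calls include both raised and lowered p65 entry, mostly lowered; wells with fewer than 50 cells lack a z-score.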 Raw values are not corrected between plates."}
{"gene": "H3c8", "p65 translocation robust z-score": 0.97, "nuclear/cytoplasmic p65 ratio, rep 1": 1.67, "nuclear/cytoplasmic p65 ratio, rep 2": 1.58, "low cell count flag": "enough cells to score", "Outcome": "inactive"}
{"gene": "Supt3", "p65 translocation robust z-score": 1.25, "nuclear/cytoplasmic p65 ratio, rep 1": 1.65, "nuclear/cytoplasmic p65 ratio, rep 2": 1.82, "low cell count flag": "enough cells to score", "Outcome": "inactive"}
{"gene": "Or8k36", "p65 translocation robust z-score": -0.36, "nuclear/cytoplasmic p65 ratio, rep 1": 1.59, "nuclear/cytoplasmic p65 ratio, rep 2": 1.53, "low cell count flag": "enough cells to score", "Outcome": "inactive"}
{"gene": "Ednra", "p65 translocation robust z-score": -0.82, "nuclear/cytoplasmic p65 ratio, rep 1": 1.36, "nuclear/cytoplasmic p65 ratio, rep 2": 1.5, "low cell count flag": "enough cells to score", "Outcome": "inactive"}
{"gene": "Psrc1", "p65 translocation robust z-score": 0.19, "nuclear/cytoplasmic p65 ratio, rep 1": 1.6, "nuclear/cytoplasmic p65 ratio, rep 2": 1.69, "low cell count flag": "enough cells to score", "Outcome": "inactive"}
{"gene": "Rabggtb", "p65 translocation robust z-score": 1.57, "nuclear/cytoplasmic p65 ratio, rep 1": 1.79, "nuclear/cytoplasmic p65 ratio, rep 2": 1.69, "low cell count flag": "enough cells to score", "Outcome": "inactive"}
{"gene": "Noazfp", "p65 translocation robust z-score": -0.11, "nuclear/cytoplasmic p65 ratio, rep 1": 1.4, "nuclear/cytoplasmic p65 ratio, rep 2": 1.24, "low cell count flag": "enough cells to score", "Outcome": "inactive"}

Next part; the last 2 above are carried over.
{"gene": "Rabggtb", "p65 translocation robust z-score": 1.57, "nuclear/cytoplasmic p65 ratio, rep 1": 1.79, "nuclear/cytoplasmic p65 ratio, rep 2": 1.69, "low cell count flag": "enough cells to score", "Outcome": "inactive"}
{"gene": "Noazfp", "p65 translocation robust z-score": -0.11, "nuclear/cytoplasmic p65 ratio, rep 1": 1.4, "nuclear/cytoplasmic p65 ratio, rep 2": 1.24, "low cell count flag": "enough cells to score", "Outcome": "inactive"}
{"gene": "Isl1", "p65 translocation robust z-score": -1.47, "nuclear/cytoplasmic p65 ratio, rep 1": 1.27, "nuclear/cytoplasmic p65 ratio, rep 2": 1.24, "low cell count flag": "enough cells to score", "Outcome": "inactive"}
{"gene": "Mrpl33", "p65 translocation robust z-score": -2.21, "nuclear/cytoplasmic p65 ratio, rep 1": 1.45, "nuclear/cytoplasmic p65 ratio, rep 2": 1.24, "low cell count flag": "enough cells to score", "Outcome": "active"}
{"gene": "Tmem132d", "p65 translocation robust z-score": 1.53, "nuclear/cytoplasmic p65 ratio, rep 1": 1.78, "nuclear/cytoplasmic p65 ratio, rep 2": 2.08, "low cell count flag": "enough cells to score", "Outcome": "inactive"}
{"gene": "Stambp", "p65 translocation robust z-score": 0.61, "nuclear/cytoplasmic p65 ratio, rep 1": 1.5, "nuclear/cytoplasmic p65 ratio, rep 2": 1.27, "low cell count flag": "enough cells to score", "Outcome": "inactive"}
{"gene": "Mfrp", "p65 translocation robust z-score": 1.07, "nuclear/cytoplasmic p65 ratio, rep 1": 1.76, "nuclear/cytoplasmic p65 ratio, rep 2": 1.81, "low cell count flag": "enough cells to score", "Outcome": "inactive"}
{"gene": "Celf1", "p65 translocation robust z-score": -0.58, "nuclear/cytoplasmic p65 ratio, rep 1": 1.42, "nuclear/cytoplasmic p65 ratio, rep 2": 1.29, "low cell count flag": "enough cells to score", "Outcome": "inactive"}
{"gene": "Dgke", "p65 translocation robust z-score": -0.59, "nuclear/cytoplasmic p65 ratio, rep 1": 1.69, "nuclear/cytoplasmic p65 ratio, rep 2": 1.31, "low cell count flag": "enough cells to score", "Outcome": "inactive"}
{"gene": "Or5d38", "p65 translocation robust z-score": -0.37, "nuclear/cytoplasmic p65 ratio, rep 1": 1.63, "nuclear/cytoplasmic p65 ratio, rep 2": 1.5, "low cell count flag": "enough cells to score", "Outcome": "inactive"}
{"gene": "Fam50a", "nuclear/cytoplasmic p65 ratio, rep 1": 1.36, "nuclear/cytoplasmic p65 ratio, rep 2": 1.69, "low cell count flag": "fewer than 50 cells per well; well left out of scoring", "Outcome": "inactive"}
{"gene": "Cyp8b1", "p65 translocation robust z-score": 0.24, "nuclear/cytoplasmic p65 ratio, rep 1": 1.47, "nuclear/cytoplasmic p65 ratio, rep 2": 1.83, "low cell count flag": "enough cells to score", "Outcome": "inactive"}
{"gene": "Rgs5", "p65 translocation robust z-score": -0.82, "nuclear/cytoplasmic p65 ratio, rep 1": 1.36, "nuclear/cytoplasmic p65 ratio, rep 2": 1.5, "low cell count flag": "enough cells to score", "Outcome": "inactive"}
{"gene": "Gng10", "p65 translocation robust z-score": 1.09, "nuclear/cytoplasmic p65 ratio, rep 1": 1.78, "nuclear/cytoplasmic p65 ratio, rep 2": 1.72, "low cell count flag": "enough cells to score", "Outcome": "inactive"}
{"gene": "Trmu", "p65 translocation robust z-score": 2.62, "nuclear/cytoplasmic p65 ratio, rep 1": 1.84, "nuclear/cytoplasmic p65 ratio, rep 2": 1.43, "low cell count flag": "enough cells to score", "Outcome": "inactive"}
{"gene": "Sox5", "p65 translocation robust z-score": 1.29, "nuclear/cytoplasmic p65 ratio, rep 1": 1.53, "nuclear/cytoplasmic p65 ratio, rep 2": 1.43, "low cell count flag": "enough cells to score", "Outcome": "inactive"}
